Laboratory results from paper PMC10611757.
Results are given in words; binding and its absence hold for the method and conditions named. Some results given as binding are weak or reduced against the parent protein; the word gives no strength.

By UniProt entry, the sequences of proteins in these tests, tags left out. Residues count along the entry.
UniProt P78352, residues 426-721: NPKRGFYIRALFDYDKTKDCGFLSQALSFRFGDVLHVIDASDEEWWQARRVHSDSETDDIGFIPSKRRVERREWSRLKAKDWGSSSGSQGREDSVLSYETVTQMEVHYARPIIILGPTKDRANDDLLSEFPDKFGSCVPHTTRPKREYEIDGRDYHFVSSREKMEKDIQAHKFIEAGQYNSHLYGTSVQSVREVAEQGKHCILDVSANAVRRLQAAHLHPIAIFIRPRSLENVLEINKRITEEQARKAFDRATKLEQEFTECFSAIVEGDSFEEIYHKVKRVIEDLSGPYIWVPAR

Biological target: PSD-95_SH3-GK (truncated construct of PSD-95 containing the SH3 and guanylate kinase (GK) domain) (UniProt P78352)
Assay: NMR titration; competition: pDLS titrated into 20 µM 15N-labelled Tau with 120 µM PSD-95_SH3-GK (Tau:PSD-95_SH3GK:pDLS 1:6:6 and 1:6:12); 1H-15N HSQC, 278 K, 50 mM sodium phosphate, pH 6.8, 100 mM Na2SO4, 1 mM DTT; both purified

- binding: binds
B1: pDLS peptide (peptide)
peptide: RIRRESYRRANGQSFDLS
modifications: phosphoserine at position 6 ((p)S); acetylated N-terminus; amidated C-terminus
